No constants are given. Whether binding was seen depends on the method and setting. Binding seen in cells or lysates may run through a third protein. A yes stands for co-enrichment or nearness to the bait. Other partners may have been found. Tags and fused reporters may be left off the sequences shown.

Sequences of proteins named here, by UniProt entry; tags and fusion partners are left off. Residues count along the entry.
UniProt P27824, residues 21-592: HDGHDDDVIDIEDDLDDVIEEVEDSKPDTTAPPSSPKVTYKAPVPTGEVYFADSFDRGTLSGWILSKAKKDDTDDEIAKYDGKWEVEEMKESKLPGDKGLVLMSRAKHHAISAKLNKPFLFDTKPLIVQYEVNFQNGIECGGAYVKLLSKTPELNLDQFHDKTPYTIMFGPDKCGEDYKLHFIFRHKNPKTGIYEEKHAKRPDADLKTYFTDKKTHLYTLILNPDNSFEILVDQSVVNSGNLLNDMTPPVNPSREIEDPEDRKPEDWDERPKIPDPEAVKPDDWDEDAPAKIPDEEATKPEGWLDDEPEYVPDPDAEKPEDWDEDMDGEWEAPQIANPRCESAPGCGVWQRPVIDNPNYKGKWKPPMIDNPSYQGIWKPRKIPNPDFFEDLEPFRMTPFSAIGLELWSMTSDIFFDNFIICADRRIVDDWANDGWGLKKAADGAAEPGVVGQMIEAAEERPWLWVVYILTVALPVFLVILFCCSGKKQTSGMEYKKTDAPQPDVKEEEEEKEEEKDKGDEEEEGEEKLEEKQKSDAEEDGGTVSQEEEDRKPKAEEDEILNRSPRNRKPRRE

In the test the target is T1, GST-tagged full-length rat Arc (activity-regulated cytoskeleton-associated protein) with C-terminal histidine tag (rat) (UniProt Q63053).
T1 sequence: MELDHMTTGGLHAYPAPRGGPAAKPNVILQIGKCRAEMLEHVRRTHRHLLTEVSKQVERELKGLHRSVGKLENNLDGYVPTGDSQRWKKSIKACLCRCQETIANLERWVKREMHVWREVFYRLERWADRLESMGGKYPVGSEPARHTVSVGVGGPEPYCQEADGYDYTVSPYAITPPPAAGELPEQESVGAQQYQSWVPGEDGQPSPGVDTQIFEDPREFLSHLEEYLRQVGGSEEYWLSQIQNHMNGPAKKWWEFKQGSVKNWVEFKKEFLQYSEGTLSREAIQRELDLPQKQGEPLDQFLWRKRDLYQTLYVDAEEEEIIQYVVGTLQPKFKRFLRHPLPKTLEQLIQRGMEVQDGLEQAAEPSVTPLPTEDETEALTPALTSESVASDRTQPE
As to the kind of experiment: affinity purification with mass spectrometry; GST-Arc or GST on glutathione sepharose beads, pre-cleared HEK293 lysate with 5 mM DTT, overnight at 4°C, washed 4x with ice-cold PBS; Coomassie-stained SDS-PAGE band excised, MALDI-TOF; only the target purified.

On to “calnexin, endogenous human (from UniProt P27824 21-592)”, for which the binding entry is given as “binds”.
